Measurements reported in the supplement of paper PMC5949888.
Most values lie at the floor of the assay. Slopes are relative: functional sequences can read slightly below zero.

system: Saccharomyces cerevisiae PS128 hsf1 delta, HSF1(1-493) fusion; assay: growth estimate (transactivation domain function in HSF1 fusion, heat-shock survival) (a.u. (slope of normalised read count over time)); higher = stronger growth at 37°C, i.e. more transactivation activity; settings: library: random library
Method: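 Random 60-nt DNA library encoding peptides of up to 20 aa, fused to the C-terminus of yeast HSF1 residues 1-493 (C-terminal TAD deleted) and expressed from the native HSF1 promoter on a CEN plasmid in hsf1-deleted S. cerevisiae PS128. Cells were selected at 37°C on -trp 5-FOA plates for 0, 2, 4, 6 and 8 days and amplicons were sequenced. Growth estimate is the slope of a robust linear fit of total-sum-normalised read counts (normalised to the first time point) over time, using at least 2 replicates. Sequences are classed functional (TAD activity) above a threshold of -0.13, set from stop-codon control sequences.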

Row | Substance | growth estimate
1 | KVPIRSD | < -0.25
2 | SSVSAHECYRGARTLCLLSN | < -0.25
3 | SAVRNEISVISPDVDVRHMS | < -0.25
4 | TQARDTPILLTGERLLDHVG | < -0.25
5 | LGDGKSDRRYSMTEEPVSTV | < -0.25
6 | CAAEYLTWAEDEAVAVYPHS | < -0.25
7 | ACIYEQIGRFWLSGLTRRGD | < -0.25
8 | LVHQSV | < -0.25
9 | PGRREVEVLDEHLELSPMIH | < -0.25
10 | HHGEGV | < -0.25
11 | SPRSPTLVR | < -0.25
12 | QVEPPTIRA | < -0.25
13 | GSVRIT | < -0.25
14 | CQVVPTSSKQTDAPLNV | < -0.25
15 | NRDRLHVIEASLWSAAQRAR | < -0.25
16 | TVLHDLSISSLAASSR | < -0.25
17 | WNCHSGAGSRSVSHA | < -0.25
18 | SEASPSDGVTIPRPSLRIRA | < -0.25
19 | NTGIRVGWIKLMGKRGYAFG | < -0.25
20 | TPT | < -0.25
21 | LGSRVHTATTAQAPGKGEYG | < -0.25
22 | IPHAPILNGTSLPLLFVKPG | < -0.25
23 | RYSYKWMEDWSTALRDSVRR | < -0.25
24 | KSPYD | < -0.25
25 | PRAGSAPKLVRLCSSFSRGV | < -0.25
26 | SVNVIYWPRGRDFDVAPDPC | < -0.25

Row | Substance | growth estimate
27 | LWSLF | < -0.25
28 | VIKGAADLRDVHSVGIEPWG | < -0.25
29 | EGEAALHVELVQLRG | -0.243
30 | PRASSYSIFR | < -0.25
31 | TASESVWLSHLPSTKF | < -0.25
32 | GCDGKLTWNRAQLFSRTNRS | < -0.25
33 | DRWRNSMRVK | < -0.25
34 | HPGTRN | < -0.25
35 | ALYLRTPSVLEAPGRARGVS | < -0.253
36 | CPIFSDGRNYWLPFRGRLAT | < -0.25
37 | GQVAFDGRFGQITTLSMQDH | < -0.25
38 | TLADHPTTQGY | < -0.25
39 | SYLQIFAGQHPTIIAM | < -0.25
40 | YGTSQLCFKVVRINGILLAR | < -0.25
41 | WPSAQHTPSLATR | -0.0341
42 | AALMPLPGVDD | < -0.25
43 | ARWAVDGPGCAHEMCHWVLV | < -0.25
44 | RIHIVEA | < -0.25
45 | KDNGPYANFRTVPHKCITRL | < -0.25
46 | NLLVLRRLM | < -0.25
47 | IAPR | < -0.25
48 | RDA | < -0.25
49 | SHARTYQVHLRALH | < -0.25
50 | KEGR | < -0.25
51 | RHSTGGFGSLTNAHCGAYS | < -0.25
52 | SVAVLFFGSSVAWPLHISCR | < -0.25

Row | Substance | growth estimate
53 | HEDGPNANEPGQESAPTRLI | -0.231
54 | YGITVPAATRGLEFNQYQY | < -0.25
55 | GIHGLGAAIAPFKCLNDWET | < -0.25
56 | MCWSTTDLCWS | < -0.25
57 | GEPRRCRGQVSCPYGANSSV | < -0.25
58 | VGGIEPWSALGRLGEGTSSH | < -0.25
59 | MWFPPRNKPQAGDYRFRRIV | < -0.25
60 | AKIINSRRVIGLLRAQGSLA | < -0.25
61 | MGLC | < -0.25
62 | PSTQSCGYLKREDIRLSMPW | < -0.25
63 | VRGD | < -0.25
64 | GGPSTGVLVN | < -0.25
65 | MDRGYHHHLVESIYNLLIKP | < -0.25
66 | QQRMNTREGKPTHFNRKFRP | < -0.25
67 | GIRTVPWIQCLKAVGI | < -0.25
68 | LYV | < -0.25
69 | LEGFKFALERAFDLRRRPMQ | < -0.25
70 | FRGG | < -0.25
71 | RIL | < -0.25
72 | GPTHTNGHDLGTPTKLSFLS | < -0.25
73 | FTFPKFPACAR | < -0.25
74 | GASQESIRLI | < -0.25
75 | RVLGHRPRTPRMVKF | -0.199
76 | GLN | < -0.25
77 | TIAEPRNEEEDTPEGGSGVY | < -0.25
78 | RFTPLEGSKVTSTGRNAIHE | < -0.25

Row | Substance | growth estimate
79 | CVRNC | < -0.25
80 | LRGMLICAEWETA | < -0.25
81 | TVTLSR | < -0.25
82 | YHVAKVNIGSALGKSSRSRP | < -0.25
83 | YESVGL | < -0.25
84 | VIHWAGKFMQYTALSIRKEP | < -0.25
85 | VEKSEHGVSATRQAKGRRTT | < -0.25
86 | KRLLRSNLEPQPSVR | < -0.25
87 | GNTPGSG | < -0.25
88 | HKAVGAYRLL | < -0.25
89 | RRSKDLSRTVLGFSGWQFC | < -0.25
90 | NRSFQSLVIKWKEVRDSDVH | < -0.25
91 | GYPSISRFHTTADRLITIRG | < -0.25
92 | HESFSHEVL | < -0.25
93 | IKNFSVKSCFL | < -0.25
94 | NFPLYLLIVT | < -0.25
95 | PMRCSIE | < -0.25
96 | DRHGKTATGPICCGG | < -0.25
97 | SPSP | < -0.25
98 | TRASARVRVSE | < -0.25
99 | RSDRNKF | < -0.25
100 | KGTQVYRSLGGVSDGQAVAR | < -0.25
101 | IASPSGSKGRS | < -0.25
102 | YCRNTALRSQ | < -0.25
103 | TAL | < -0.25
104 | QVQGTLRFPRIENDWVCCKG | < -0.25

Row | Substance | growth estimate
105 | NVLDPHMDGLANN | < -0.25
106 | LAVFPEDVQDP | < -0.25
107 | QLVASDELVVLGPTTTPTRR | < -0.25
108 | RPSFGPVDGSASNLKPSETC | < -0.25
109 | THSIRFESNCMRRRRPHARK | < -0.25
110 | ASLVNEVGFFGFLPDHHMWV | 2.03
111 | TCCL | < -0.25
112 | PDATCQKRA | < -0.25
113 | GGFE | < -0.25
114 | HGLAYKSRVTASIPVQGLLP | < -0.25
115 | APCHLIFCRRTILP | < -0.25
116 | RSLGARVLRPMYAA | < -0.25
117 | GCPNTIGDVTRHVSTGGRTA | < -0.25
118 | ITGAWARAAPRASGI | < -0.25
119 | QCPWGINYEFVHFGHGGCAK | < -0.25
120 | PYTPPSVTCGQRTPCQRPSP | < -0.25
121 | FGGIPCVGHDAIREARGVL | < -0.25
122 | PDMATYHRWVLETPGARKSK | < -0.25
123 | RGQTLATSIFFV | < -0.25
124 | AHNTSSRELNCANWREQVFG | -0.246
125 | YATRLVLSKGG | < -0.25
126 | ISEGIAVPRFL | < -0.25
127 | LHTSC | < -0.25
128 | RIMFKLRYSMANHQIAALSL | < -0.25
129 | GLQGRA | < -0.25
130 | RYRDNGTAEVYEWRVVYPWF | < -0.25

In another format: entries from further up
RSLGARVLRPMYAA
  growth estimate: < -0.25
GCPNTIGDVTRHVSTGGRTA
  growth estimate: < -0.25
ITGAWARAAPRASGI
  growth estimate: < -0.25
QCPWGINYEFVHFGHGGCAK
  growth estimate: < -0.25

More entries follow:

Row | Substance | growth estimate
131 | PPTAAAGLLRLSRFTNGLGL | < -0.25
132 | KIYGLVGVPNGNRKVITQLA | < -0.25
133 | VMGGLLRQT | < -0.25
134 | LMAAGLYLRDRNDLEEPLTP | < -0.25
135 | IGKTRVKHGDPSTAKSLYLL | < -0.25
136 | FELGGGCFDARVPY | < -0.25
137 | YKHMIEYQERRRTITSVGQA | < -0.25
138 | VSPSGSLKLTLYCPAKGTS | < -0.25
139 | DQLHHALAVRVSSRA | < -0.25
140 | TKLRPYGMSHFSGLWGPSGA | < -0.25
141 | FPSFMYRLWKSRYMSVQLTV | < -0.25
142 | CDFYV | < -0.25
143 | NLREPQVFPYVGDDFGHSAI | < -0.25
144 | YNQGPRTQP | < -0.25
145 | RDWLDA | < -0.25
146 | RDFQRVE | < -0.25
147 | GCW | < -0.25
148 | PELSIPVALVLRRHDLVR | < -0.25
149 | SGYIEPVAKHRESVCKCRLA | < -0.25
150 | DFG | < -0.25
151 | IAGENKGGKTRTGFQAEQPS | < -0.25
152 | YGNWDCGQ | < -0.25
153 | KITWVARCPVYAQRGRL | -0.231
